According to article doi:10.1101/2024.05.31.596839:
Results are given in words; binding and its absence hold for the method and conditions named. For some of these results: Binding can be weak; no strength is given. For some of these results: Sequences can lack the tags named with a protein. Blank lines part the entries; values can stand above or below the molecule they belong to.

Experiments:
Spindle E (Drosophila) = biological target: T1, Spindle E (Drosophila) (UniProt Q9VF26); experiment: ReLo
T1 sequence: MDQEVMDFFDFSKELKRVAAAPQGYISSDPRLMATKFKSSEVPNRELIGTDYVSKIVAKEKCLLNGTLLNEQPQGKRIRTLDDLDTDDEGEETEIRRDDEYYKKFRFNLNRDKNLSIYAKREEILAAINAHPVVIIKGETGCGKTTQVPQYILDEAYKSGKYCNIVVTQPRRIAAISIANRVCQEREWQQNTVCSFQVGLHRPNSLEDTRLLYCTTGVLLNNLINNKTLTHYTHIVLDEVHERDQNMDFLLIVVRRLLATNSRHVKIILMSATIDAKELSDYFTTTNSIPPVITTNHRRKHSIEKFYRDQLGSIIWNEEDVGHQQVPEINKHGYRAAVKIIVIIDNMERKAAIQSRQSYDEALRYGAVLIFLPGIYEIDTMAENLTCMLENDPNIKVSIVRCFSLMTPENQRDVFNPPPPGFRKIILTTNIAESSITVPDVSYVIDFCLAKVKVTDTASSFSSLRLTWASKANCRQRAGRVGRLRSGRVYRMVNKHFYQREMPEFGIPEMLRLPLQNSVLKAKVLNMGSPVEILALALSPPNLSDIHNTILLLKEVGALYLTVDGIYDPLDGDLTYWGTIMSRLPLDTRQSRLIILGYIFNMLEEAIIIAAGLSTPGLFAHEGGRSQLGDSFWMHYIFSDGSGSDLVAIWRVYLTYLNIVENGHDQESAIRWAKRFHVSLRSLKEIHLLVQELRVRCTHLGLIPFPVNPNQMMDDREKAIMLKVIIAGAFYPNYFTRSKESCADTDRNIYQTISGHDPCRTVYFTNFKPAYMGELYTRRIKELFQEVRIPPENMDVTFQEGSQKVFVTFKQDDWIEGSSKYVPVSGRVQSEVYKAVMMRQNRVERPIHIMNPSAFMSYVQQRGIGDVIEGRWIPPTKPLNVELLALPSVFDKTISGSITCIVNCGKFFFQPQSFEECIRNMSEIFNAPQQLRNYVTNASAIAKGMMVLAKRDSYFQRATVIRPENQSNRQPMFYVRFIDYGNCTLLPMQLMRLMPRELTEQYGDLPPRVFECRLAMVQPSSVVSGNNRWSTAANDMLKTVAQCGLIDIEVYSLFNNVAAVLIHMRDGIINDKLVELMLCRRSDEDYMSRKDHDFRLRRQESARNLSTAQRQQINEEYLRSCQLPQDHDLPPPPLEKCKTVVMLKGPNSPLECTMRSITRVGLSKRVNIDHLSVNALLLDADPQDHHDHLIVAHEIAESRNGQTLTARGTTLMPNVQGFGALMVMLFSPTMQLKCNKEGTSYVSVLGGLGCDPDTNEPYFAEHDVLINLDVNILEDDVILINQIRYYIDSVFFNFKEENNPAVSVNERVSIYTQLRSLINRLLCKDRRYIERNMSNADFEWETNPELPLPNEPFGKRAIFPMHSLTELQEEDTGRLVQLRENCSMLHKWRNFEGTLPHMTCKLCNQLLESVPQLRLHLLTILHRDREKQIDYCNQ

Tejas (Drosophila) = experiment: ReLo
Tapas (Drosophila) = experiment: ReLo
[1] = biological target: Tejas eTudor domain (aa 334-559) (Drosophila); experiment: ReLo
GST-Tejas (Drosophila) = experiment: pull-down
[2] = biological target: GST-superfolder-GFP (GsfG)-Tejas (Drosophila); experiment: pull-down

binding (Spindle E (Drosophila)): binds
Molecule: Qin (Drosophila)

binding (Spindle E (Drosophila)): no binding
Molecule: Tejas A332E/V333E (Drosophila)

binding (Spindle E (Drosophila)): no binding
Molecule: Tapas (Drosophila)

binding (Spindle E (Drosophila)): binds
Molecule: Tejas V347E (Drosophila)

binding (Spindle E (Drosophila)): no binding
Molecule: Tejas D320K (Drosophila)

binding (Tejas (Drosophila)): no binding
B1: KrimpΔ551-746 (domain or fragment, UniProt A1ZAC4 1-550)
chain: MNLEDISMIMKLFDSNMHKLQGNLRSYQTEMHQIHKELTEKLSHADLLYRSLIPLHDHLVASLSEVNAHVMKLNVQLHINRQSVRLGDYEYYEKSIDNPYSSIRSGLQAIEKPGCAEAICQSSKPAFVECLPSSTSEEVPVVAVQEASSTNQLDAISVVNENLSEERDATPQPLAVSKNMEETMPSNPFHEQLEGSLEEIPVGSKIVVETEKANNPVRSEASAPATSDNQSLLAAKQGTQTIGTGICNKISKSTINMPNNWQLENPTEVTAASIEKVNKLPKSPRNRFLLPPKGGTETTRRDIYNQILKDMAAFPENTIVTAVLASVDVTDNCAYVAKWDESSDRIKKVLQRQLPLQELDQLPDYGDIFAVLDSINNIITRITINSSSAGGGYDAYLIDFGEHIHFDGNETIFKLPDDIKRLPAQAIRCDLINCDIANMHCFVNTYIKIRVHENNNSTLVAEPVIDRLSRPTKTNTTKYPAGITEDDMAMLNEIDESTSDPLKAVLGFRPKDEQRICRHYDPKLNGCFKGNNCRFAHEPFAPNGATKDVE

binding (Tapas (Drosophila)): no binding
B2: Argonaute 3 (protein, UniProt Q7PLK0 1-867)
chain: MSGRGNLLSLFNKNAGNMGKSISSKDHEIDSGLDFNNSESSGERLLSSHNIETDLITTLQHVNISVGRGRARLIDTLKTDDHTSNQFITSESKENITKKTKGPESEAIASENGLFFPDLIYGSKGSSVNIYCNYLKLTTDESKGVFNYEVRFFPPIDSVHLRIKYLNDHKDKLGGTKTFDGNTLYLPILLPNKMTVFISKAEDVELQIRILYKKKEEMRNCTQLYNILFDRVMKVLNYVKFDRKQFDPSRPKIIPLAKLEVWPGYVTAVDEYKGGLMLCCDVSHRILCQKTVLEMLVDLYQQNVEHYQESARKMLVGNIVLTRYNNRTYKINDICFDQNPTCQFEIKTGCTSYVEYYKQYHNINIKDVNQPLIYSIKKSRGIPAERENLQFCLIPELCYLTGLRDEVRSDNKLMREIATFTRVSPNQRQMALNKFYENVSNTPAAQEILNSWGLSLTNNSNKISGRQMDIEQIYFSKISVSAGRSAEFSKHAVTNEMLKVVHLSKWIIIHLRNYRQAATSLLDNMKQACESLGMNISNPTMISLDHDRIDAYIQALRRNITMNTQMVVCICHNRRDDRYAAIKKICCSEIPIPSQVINAKTLQNDLKIRSVVQKIVLQMNCKLGGSLWTVKIPFKNVMICGIDSYHDPSNRGNSVAAFVASINSSYSQWYSKAVVQTKREEIVNGLSASFEIALKMYRKRNGKLPTNIIIYRDGIGDGQLYTCLNYEIPQFEMVCGNRIKISYIVVQKRINTRIFSGSGIHLENPLPGTVVDQHITKSNMYDFFLVSQLVRQGTVTPTHYVVLRDDCNYGPDIIQKLSYKLCFLYYNWAGTVRIPACCMYAHKLAYLIGQSIQRDVAEALSEKLFYL

binding [1]: binds
B3: Maelstrom C-terminal region (aa 334-459) (domain or fragment, UniProt Q9VNS0 334-459)
chain: TKPNYLIISSYASSLDHESSFDSFYSLPGSGVKKESQPEACSLSSSRLSVASSSYKPIDHTSFAANLNEVSEFPSLGMRNSSKHHGIAASAQREWNARNLPTHSRLIRKVSDNDFSVNGADGKLKK

binding (Tejas (Drosophila)): no binding
B4: KrimpΔ1-83 (domain or fragment, UniProt A1ZAC4 84-746)
chain: VRLGDYEYYEKSIDNPYSSIRSGLQAIEKPGCAEAICQSSKPAFVECLPSSTSEEVPVVAVQEASSTNQLDAISVVNENLSEERDATPQPLAVSKNMEETMPSNPFHEQLEGSLEEIPVGSKIVVETEKANNPVRSEASAPATSDNQSLLAAKQGTQTIGTGICNKISKSTINMPNNWQLENPTEVTAASIEKVNKLPKSPRNRFLLPPKGGTETTRRDIYNQILKDMAAFPENTIVTAVLASVDVTDNCAYVAKWDESSDRIKKVLQRQLPLQELDQLPDYGDIFAVLDSINNIITRITINSSSAGGGYDAYLIDFGEHIHFDGNETIFKLPDDIKRLPAQAIRCDLINCDIANMHCFVNTYIKIRVHENNNSTLVAEPVIDRLSRPTKTNTTKYPAGITEDDMAMLNEIDESTSDPLKAVLGFRPKDEQRICRHYDPKLNGCFKGNNCRFAHEPFAPNGATKDVELARALPETIFDTTVHFEIGSIVGILITFINGPTEVYGQFLDGSPPLVWDKKDVPENKRTFKSKPRLLDIVLALYSDGCFYRAQIIDEFPSEYMIFYVDYGNTEFVPLSCLAPCENVDSFKPHRVFSFHIEGIVRSKNLTHQKTIECIEYLKSKLLNTEMNVHLVQRLPDGFLIRFLDDWKYIPEQLLQRNYAQVSQ

binding (GST-Tejas (Drosophila)): binds
Molecule: NSSKHHGIAASAQREWNARNLPTHSRLIRKVSDNDFSVNGADGKLKK (domain or fragment, UniProt Q9VNS0 413-459) [MBP-fused Mael C-terminus (aa 413-459)]

binding (Tapas (Drosophila)): no binding
binding (Tejas (Drosophila)): binds
B5: Maelstrom (protein, UniProt Q9VNS0 1-459)
chain: MAPKKHSGFMMFVNEWRNRNAEGRRMTLAQAVSHCGTIWEKMNTQQRGPYNSGGKDANVAQRAKRESSNGHGQVDKAQREATESLMDMKRTIERLVLNAKMSHDLENAKFVFVAFNYFTKALTTDVYVPAEFAACEYSLKEGIRSIYSTMIDPGQIIFGQGSDALLHSSTTHDLPLPPNALGEKNMTKLYRNIVDYLSKCQGKGKTLVVFTPAENITMVKSCFRYLECDDDFRDGGEKIQVFDIQYLLFILKKEVMNVADLNDEKINKFATDAFFKKDFFEFTAGIACQYHEDNDRTKYCTQSMVTRWAYTFTDFMCGDLAITVQPGKHIPAQTKPNYLIISSYASSLDHESSFDSFYSLPGSGVKKESQPEACSLSSSRLSVASSSYKPIDHTSFAANLNEVSEFPSLGMRNSSKHHGIAASAQREWNARNLPTHSRLIRKVSDNDFSVNGADGKLKK

binding [2]: binds
B6: full-length MBP-Maelstrom (protein, UniProt Q9VNS0 1-459)
chain: B5 chain
